Measured values as given in the supplement of paper PMC10849652.
Some of the results follow.

Chains of the proteins cited; added tags and fusions are not shown. Lines headed by an entry give the natural chain unless they say otherwise; changes in a name come on top.
UniProt Q96LJ8: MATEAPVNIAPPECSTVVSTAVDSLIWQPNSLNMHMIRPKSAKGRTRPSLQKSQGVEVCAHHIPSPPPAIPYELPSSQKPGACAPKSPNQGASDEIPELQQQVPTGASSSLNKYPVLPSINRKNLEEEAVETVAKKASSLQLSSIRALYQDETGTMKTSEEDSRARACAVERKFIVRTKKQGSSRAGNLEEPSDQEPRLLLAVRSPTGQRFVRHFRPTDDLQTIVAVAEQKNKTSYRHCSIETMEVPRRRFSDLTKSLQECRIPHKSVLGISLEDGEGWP
UniProt Q16222: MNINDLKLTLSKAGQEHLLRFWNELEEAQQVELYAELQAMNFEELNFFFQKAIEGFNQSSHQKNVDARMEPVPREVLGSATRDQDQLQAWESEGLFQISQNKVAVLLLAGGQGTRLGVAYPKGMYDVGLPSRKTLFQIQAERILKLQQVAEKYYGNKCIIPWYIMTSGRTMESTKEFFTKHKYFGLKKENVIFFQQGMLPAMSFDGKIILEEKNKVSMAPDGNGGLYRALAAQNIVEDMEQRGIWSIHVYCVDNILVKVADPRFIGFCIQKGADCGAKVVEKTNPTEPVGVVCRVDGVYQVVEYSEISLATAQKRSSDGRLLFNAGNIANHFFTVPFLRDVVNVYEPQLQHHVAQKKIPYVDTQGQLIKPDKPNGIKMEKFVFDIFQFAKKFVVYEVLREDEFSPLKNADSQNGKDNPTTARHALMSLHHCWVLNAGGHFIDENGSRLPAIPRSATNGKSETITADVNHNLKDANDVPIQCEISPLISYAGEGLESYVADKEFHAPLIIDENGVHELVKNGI
UniProt Q5T4S7, whole entry, looked up: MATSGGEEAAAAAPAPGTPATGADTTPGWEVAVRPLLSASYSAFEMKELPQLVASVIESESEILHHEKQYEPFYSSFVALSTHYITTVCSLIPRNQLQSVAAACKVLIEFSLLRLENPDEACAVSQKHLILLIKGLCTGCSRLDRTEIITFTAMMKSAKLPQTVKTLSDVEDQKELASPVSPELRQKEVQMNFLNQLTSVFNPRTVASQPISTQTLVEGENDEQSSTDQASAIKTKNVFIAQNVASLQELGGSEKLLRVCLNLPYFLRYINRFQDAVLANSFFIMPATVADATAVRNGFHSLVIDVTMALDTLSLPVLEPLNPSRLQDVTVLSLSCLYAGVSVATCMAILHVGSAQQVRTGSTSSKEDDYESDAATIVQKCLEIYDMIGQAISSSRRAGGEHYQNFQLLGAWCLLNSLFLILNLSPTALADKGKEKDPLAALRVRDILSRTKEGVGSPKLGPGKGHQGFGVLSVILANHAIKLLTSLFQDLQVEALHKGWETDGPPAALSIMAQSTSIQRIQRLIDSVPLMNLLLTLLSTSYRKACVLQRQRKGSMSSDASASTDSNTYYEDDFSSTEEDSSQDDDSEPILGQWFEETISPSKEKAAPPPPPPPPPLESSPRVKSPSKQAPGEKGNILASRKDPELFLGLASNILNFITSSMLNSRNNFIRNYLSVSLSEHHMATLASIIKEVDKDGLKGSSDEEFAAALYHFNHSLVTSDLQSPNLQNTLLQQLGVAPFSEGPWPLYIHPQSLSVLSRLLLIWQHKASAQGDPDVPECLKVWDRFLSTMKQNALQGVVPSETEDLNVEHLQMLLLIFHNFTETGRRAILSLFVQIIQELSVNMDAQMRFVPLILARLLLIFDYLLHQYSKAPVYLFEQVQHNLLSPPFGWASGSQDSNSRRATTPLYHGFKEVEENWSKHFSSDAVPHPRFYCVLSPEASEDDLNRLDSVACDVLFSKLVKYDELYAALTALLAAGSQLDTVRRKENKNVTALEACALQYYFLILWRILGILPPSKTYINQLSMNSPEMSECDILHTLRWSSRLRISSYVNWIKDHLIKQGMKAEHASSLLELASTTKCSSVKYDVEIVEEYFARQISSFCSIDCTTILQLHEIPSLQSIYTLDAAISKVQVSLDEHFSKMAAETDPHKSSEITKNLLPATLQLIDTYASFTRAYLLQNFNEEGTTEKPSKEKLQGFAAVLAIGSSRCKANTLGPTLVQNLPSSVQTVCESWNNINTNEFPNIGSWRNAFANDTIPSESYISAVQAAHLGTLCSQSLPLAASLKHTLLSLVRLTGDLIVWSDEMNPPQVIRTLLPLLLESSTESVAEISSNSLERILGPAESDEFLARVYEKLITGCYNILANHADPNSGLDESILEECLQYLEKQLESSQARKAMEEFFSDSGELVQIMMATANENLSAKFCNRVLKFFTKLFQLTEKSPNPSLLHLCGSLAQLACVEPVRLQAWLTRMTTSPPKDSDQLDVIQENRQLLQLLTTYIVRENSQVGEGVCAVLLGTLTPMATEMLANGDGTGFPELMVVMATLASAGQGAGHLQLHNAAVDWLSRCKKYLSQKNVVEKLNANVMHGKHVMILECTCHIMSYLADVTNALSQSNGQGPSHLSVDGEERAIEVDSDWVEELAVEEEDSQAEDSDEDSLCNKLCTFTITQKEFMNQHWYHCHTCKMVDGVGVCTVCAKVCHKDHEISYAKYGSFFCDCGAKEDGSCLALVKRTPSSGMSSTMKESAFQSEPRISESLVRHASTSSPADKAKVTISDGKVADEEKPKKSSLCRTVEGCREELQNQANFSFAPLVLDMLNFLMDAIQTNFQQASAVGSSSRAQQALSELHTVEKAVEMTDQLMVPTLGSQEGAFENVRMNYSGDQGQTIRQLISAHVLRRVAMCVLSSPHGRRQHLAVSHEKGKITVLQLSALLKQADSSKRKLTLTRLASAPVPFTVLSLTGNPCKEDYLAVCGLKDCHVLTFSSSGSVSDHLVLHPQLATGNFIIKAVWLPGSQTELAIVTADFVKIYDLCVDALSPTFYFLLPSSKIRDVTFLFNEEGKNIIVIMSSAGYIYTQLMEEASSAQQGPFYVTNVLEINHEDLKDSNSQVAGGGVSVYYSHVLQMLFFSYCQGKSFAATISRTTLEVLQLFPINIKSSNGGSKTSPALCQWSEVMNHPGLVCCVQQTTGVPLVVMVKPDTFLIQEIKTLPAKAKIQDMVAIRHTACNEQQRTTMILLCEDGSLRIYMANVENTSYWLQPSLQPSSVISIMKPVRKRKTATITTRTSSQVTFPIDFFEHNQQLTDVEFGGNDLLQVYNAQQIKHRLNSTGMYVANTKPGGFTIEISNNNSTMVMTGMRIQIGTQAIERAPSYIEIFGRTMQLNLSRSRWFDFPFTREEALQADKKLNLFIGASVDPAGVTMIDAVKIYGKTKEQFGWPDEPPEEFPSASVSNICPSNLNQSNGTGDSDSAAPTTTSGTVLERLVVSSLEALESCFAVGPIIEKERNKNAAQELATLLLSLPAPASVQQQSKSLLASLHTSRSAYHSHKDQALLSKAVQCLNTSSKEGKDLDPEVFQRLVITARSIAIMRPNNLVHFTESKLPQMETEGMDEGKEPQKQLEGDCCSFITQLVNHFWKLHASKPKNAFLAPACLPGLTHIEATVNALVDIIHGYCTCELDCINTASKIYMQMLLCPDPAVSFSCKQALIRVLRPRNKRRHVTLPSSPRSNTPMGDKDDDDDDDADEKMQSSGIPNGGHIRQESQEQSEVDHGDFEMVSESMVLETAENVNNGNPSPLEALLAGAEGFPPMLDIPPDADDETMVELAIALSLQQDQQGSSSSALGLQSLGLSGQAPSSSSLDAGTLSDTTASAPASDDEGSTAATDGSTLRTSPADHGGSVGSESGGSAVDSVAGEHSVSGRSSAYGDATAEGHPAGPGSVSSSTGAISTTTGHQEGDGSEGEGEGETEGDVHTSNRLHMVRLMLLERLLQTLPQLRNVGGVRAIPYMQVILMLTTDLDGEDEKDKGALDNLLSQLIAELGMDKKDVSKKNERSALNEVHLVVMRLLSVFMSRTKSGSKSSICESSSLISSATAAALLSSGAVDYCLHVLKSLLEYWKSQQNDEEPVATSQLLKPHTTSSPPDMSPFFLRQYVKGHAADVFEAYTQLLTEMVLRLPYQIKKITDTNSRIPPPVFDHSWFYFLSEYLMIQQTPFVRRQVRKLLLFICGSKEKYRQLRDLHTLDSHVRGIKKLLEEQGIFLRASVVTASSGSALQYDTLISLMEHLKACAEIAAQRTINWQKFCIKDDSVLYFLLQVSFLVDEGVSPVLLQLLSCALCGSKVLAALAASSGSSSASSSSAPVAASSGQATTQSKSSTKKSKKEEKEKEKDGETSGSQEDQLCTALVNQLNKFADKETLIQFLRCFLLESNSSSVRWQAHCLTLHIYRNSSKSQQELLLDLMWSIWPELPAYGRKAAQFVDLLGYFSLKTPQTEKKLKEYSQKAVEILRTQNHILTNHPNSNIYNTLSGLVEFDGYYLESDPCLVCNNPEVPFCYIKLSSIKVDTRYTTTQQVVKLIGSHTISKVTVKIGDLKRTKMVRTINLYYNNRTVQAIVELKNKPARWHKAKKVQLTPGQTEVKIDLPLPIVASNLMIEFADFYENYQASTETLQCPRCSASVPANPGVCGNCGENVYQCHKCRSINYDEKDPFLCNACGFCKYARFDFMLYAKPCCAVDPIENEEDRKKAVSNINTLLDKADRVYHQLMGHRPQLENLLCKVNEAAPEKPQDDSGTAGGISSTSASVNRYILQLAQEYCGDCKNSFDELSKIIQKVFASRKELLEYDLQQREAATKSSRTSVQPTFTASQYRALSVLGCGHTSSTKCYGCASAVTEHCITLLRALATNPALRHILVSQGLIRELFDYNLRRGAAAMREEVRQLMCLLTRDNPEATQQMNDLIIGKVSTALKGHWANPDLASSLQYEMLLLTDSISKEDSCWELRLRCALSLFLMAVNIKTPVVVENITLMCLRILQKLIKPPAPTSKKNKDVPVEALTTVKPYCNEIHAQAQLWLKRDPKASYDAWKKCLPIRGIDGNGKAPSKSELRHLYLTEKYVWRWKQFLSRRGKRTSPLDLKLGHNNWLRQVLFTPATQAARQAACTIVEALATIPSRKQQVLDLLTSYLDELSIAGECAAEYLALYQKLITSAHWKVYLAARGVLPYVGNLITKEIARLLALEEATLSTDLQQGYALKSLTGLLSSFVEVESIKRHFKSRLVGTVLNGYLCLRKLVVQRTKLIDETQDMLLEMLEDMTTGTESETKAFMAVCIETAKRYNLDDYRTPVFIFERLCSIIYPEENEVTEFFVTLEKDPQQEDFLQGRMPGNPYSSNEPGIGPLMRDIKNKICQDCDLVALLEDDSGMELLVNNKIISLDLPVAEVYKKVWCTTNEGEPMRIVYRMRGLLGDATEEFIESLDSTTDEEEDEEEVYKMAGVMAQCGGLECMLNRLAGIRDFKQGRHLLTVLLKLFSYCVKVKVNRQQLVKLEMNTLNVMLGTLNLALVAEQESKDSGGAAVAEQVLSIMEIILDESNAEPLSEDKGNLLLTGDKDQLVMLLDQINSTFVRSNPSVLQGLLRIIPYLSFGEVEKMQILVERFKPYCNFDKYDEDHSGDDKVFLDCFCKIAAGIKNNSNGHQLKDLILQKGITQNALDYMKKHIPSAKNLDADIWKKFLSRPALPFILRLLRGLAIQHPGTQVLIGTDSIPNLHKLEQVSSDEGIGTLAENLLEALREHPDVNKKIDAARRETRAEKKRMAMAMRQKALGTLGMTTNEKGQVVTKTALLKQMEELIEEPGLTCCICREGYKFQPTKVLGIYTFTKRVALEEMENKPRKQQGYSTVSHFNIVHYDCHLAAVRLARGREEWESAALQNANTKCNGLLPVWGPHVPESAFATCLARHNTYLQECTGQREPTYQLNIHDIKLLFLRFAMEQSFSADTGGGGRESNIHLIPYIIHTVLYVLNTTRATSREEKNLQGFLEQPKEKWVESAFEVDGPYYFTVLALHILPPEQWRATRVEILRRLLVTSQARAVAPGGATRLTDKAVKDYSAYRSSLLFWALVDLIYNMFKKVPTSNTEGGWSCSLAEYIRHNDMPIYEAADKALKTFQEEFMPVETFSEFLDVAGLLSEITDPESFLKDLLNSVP
UniProt Q9HA47: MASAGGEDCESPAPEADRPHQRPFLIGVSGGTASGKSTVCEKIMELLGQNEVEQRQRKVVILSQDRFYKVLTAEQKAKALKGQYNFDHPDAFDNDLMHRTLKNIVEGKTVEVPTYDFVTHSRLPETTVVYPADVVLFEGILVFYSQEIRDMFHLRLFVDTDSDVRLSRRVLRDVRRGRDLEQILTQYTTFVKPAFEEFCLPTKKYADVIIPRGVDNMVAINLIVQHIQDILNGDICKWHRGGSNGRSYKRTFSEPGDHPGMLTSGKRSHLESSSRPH
UniProt A2RUC4: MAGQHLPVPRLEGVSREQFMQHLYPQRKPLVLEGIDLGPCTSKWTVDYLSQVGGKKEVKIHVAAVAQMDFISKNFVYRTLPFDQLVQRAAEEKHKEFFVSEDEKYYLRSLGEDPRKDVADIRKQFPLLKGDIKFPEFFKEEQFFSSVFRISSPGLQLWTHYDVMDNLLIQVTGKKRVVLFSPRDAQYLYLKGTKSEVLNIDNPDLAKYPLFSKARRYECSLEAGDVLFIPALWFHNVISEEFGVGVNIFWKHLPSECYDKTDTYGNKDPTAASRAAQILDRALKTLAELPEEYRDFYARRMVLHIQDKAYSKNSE

Key:
Assay in all cases: log2 fold change, soluble protein after heating vs DMSO (PISA); higher = thermal stabilisation; K562 lysate, 10 uM; active = over 0.2 and 3.5 SD of the protein, either way, in both replicates (recomputed)
[1] = compound: NCC(=O)Nc1ccc(-n2nc(C(F)(F)F)cc2-c2ccc3c(ccc4ccccc43)c2)cc1
Method in brief: (§1)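 Values give the log-two fold change in thermal stability against solvent controls, from duplicates. Crude K562 extract at 1 mg/mL protein, made by dounce homogenisation in PBS pH 7.4 with 1 mM MgCl2, was treated with 10 μM compound for 30 min. After 3 min heating across 48°C-58°C, aliquots were pooled, adjusted to 0.5% NP-40 at 4°C and centrifuged at 21,000xg for 90 min. The supernatant was measured by TMTpro 16plex LC-MS/MS with channel sums equalised.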

vorinostat = compound: O=C(CCCCCCC(=O)Nc1ccccc1)NO [vorinostat]
Method in brief: as §1

silmitasertib = compound: O=C(O)c1ccc2c(c1)nc(Nc1cccc(Cl)c1)c1ccncc12 [silmitasertib]
Method in brief: as §1

[2] = compound: O=C1NC(=O)C(c2cnc3ccccn23)=C1c1cn2c3c(cc(F)cc13)CN(C(=O)N1CCCCC1)CC2
Method in brief: as §1

entospletinib = compound: c1cn2cc(-c3ccc4cn[nH]c4c3)nc(Nc3ccc(N4CCOCC4)cc3)c2n1 [entospletinib]
Method in brief: as §1

Target | log2 fold change [1] | log2 fold change (vorinostat) | log2 fold change (silmitasertib) | log2 fold change [2] | log2 fold change (entospletinib)
TWF1 (UniProt Q12792) | inactive: 0.036 | inactive: 0.023 | inactive: 0.132 | inactive: -0.064 | inactive: 0.002
TXNL4A (UniProt P83876) | inactive: 0.023 | inactive: 0.118 | inactive: -0.011 | inactive: -0.045 | inactive: -0.02
UBE2K (UniProt P61086) | inactive: -0.015 | inactive: 0.11 | inactive: -0.018 | inactive: 0.009 | inactive: -0.002
TUBG1 (UniProt P23258) | inactive: 0.009 | inactive: -0.202 | inactive: 0.042 | inactive: 0.052 | inactive: 0.027
TUBD1 (UniProt Q9UJT1) | inactive: 0.177 | inactive: 0.023 | inactive: -0.036 | inactive: 0.043 | inactive: 0.101
TXNL1 (UniProt O43396) | inactive: -0.022 | inactive: 0.125 | inactive: -0.015 | inactive: -0.013 | inactive: -0.02
UBA2 (UniProt Q9UBT2) | inactive: 0.001 | inactive: 0.011 | inactive: 0.007 | inactive: -0.007 | inactive: 0.031
UBXN10 (UniProt Q96LJ8) | inactive: -0.018 | active: -0.321 | inactive: -0.005 | inactive: -0.002 | inactive: 0
UBE2F isoform 2 (UniProt Q969M7) | inactive: -0.003 | inactive: -0.011 | inactive: -0.03 | inactive: 0.019 | inactive: 0.026
UBAC1 (UniProt Q9BSL1) | inactive: 0.015 | inactive: 0.034 | inactive: -0.002 | inactive: -0.003 | inactive: -0.003
TTN isoform 12 (UniProt Q8WZ42) | inactive: 0.172 | inactive: -0.003 | inactive: -0.048 | inactive: 0.047 | inactive: 0.014
UAP1 (UniProt Q16222) | inactive: 0.003 | inactive: -0.055 | inactive: -0.001 | inactive: 0.002 | inactive: 0.014
UBE2I (UniProt P63279) | inactive: -0.013 | inactive: 0.061 | inactive: 0.005 | inactive: -0.015 | inactive: 0.034
UBR4 (UniProt Q5T4S7) | inactive: 0 | inactive: -0.14 | inactive: 0.027 | inactive: -0.008 | inactive: 0.009
UBE2G1 (UniProt P62253) | inactive: 0.001 | inactive: 0.094 | inactive: -0.034 | inactive: -0.01 | inactive: 0.01
UBR3 isoform 4 (UniProt Q6ZT12) | inactive: -0.011 | active: -0.43 | inactive: 0.023 | inactive: -0.005 | inactive: -0.003
TXNDC15 (UniProt Q96J42) | inactive: 0.006 | inactive: 0.111 | inactive: 0.056 | inactive: -0.051 | inactive: -0.067
UBE2Q2 (UniProt Q8WVN8) | inactive: 0.087 | inactive: -0.143 | inactive: 0.172 | – | inactive: -0.02
TUBB6 (UniProt K7ES63) | inactive: -0.062 | inactive: -0.414 | inactive: 0.013 | inactive: -0.164 | inactive: -0.11

Random excerpt: 3 entries already listed, in no set order.
Target | log2 fold change [1] | log2 fold change (vorinostat) | log2 fold change (silmitasertib) | log2 fold change [2] | log2 fold change (entospletinib)
TXNL1 (UniProt O43396) | inactive: -0.022 | inactive: 0.125 | inactive: -0.015 | inactive: -0.013 | inactive: -0.02
UBR4 (UniProt Q5T4S7) | inactive: 0 | inactive: -0.14 | inactive: 0.027 | inactive: -0.008 | inactive: 0.009
UBE2F isoform 2 (UniProt Q969M7) | inactive: -0.003 | inactive: -0.011 | inactive: -0.03 | inactive: 0.019 | inactive: 0.026

Continuation.

Target | log2 fold change [1] | log2 fold change (vorinostat) | log2 fold change (silmitasertib) | log2 fold change [2] | log2 fold change (entospletinib)
U2SURP isoform 2 (UniProt O15042) | inactive: 0.068 | inactive: -0.437 | inactive: -0.272 | – | inactive: -0.147
UBXN6 (UniProt Q9BZV1) | inactive: 0.04 | active: -0.28 | inactive: 0.018 | inactive: -0.026 | inactive: -0.009
UBTF (UniProt P17480) | inactive: -0.045 | active: -0.315 | inactive: 0.044 | inactive: -0.012 | inactive: 0.032
UBL4A (UniProt P11441) | inactive: -0.036 | inactive: -0.016 | inactive: 0.04 | inactive: 0.007 | inactive: -0.011
UCHL5 (UniProt Q5LJA9) | inactive: -0.017 | active: -0.361 | inactive: 0.004 | inactive: -0.086 | inactive: -0.011
UAP1L1 (UniProt Q3KQV9) | inactive: -0.162 | inactive: -0.194 | inactive: 0.032 | inactive: -0.073 | inactive: -0.039
TTPAL (UniProt Q9BTX7) | inactive: 0.034 | inactive: 0.057 | inactive: 0.026 | inactive: -0.001 | inactive: 0
TUBGCP6 (UniProt Q96RT7) | inactive: -0.097 | inactive: -0.336 | inactive: 0.041 | inactive: 0.147 | inactive: 0.14
UBR4 isoform 4 (UniProt Q5T4S7) | inactive: -0.145 | active: -0.792 | inactive: -0.004 | – | inactive: 0.205
TUBGCP3 (UniProt Q96CW5) | inactive: -0.014 | active: -0.459 | inactive: -0.014 | inactive: 0.019 | inactive: -0.003
TWF2 (UniProt Q6IBS0) | inactive: -0.024 | inactive: 0.044 | inactive: -0.017 | inactive: -0.006 | inactive: 0
UBE2B (UniProt P63146) | inactive: -0.082 | inactive: -0.1 | inactive: -0.025 | inactive: -0.004 | inactive: -0.028
TUBA1C (UniProt Q9BQE3) | inactive: 0.019 | active: -0.256 | inactive: 0.013 | inactive: 0.006 | inactive: -0.014
TUBA1B (UniProt P68363) | inactive: -0.005 | active: -0.66 | inactive: 0.018 | inactive: 0.026 | inactive: 0.01
UBXN7 (UniProt O94888) | inactive: 0.008 | inactive: 0.025 | inactive: 0.006 | inactive: 0.017 | inactive: 0
UBR2 isoform 4 (UniProt Q8IWV8) | inactive: -0.028 | inactive: -0.178 | inactive: 0.008 | inactive: -0.006 | inactive: 0.005
UBE2Z (UniProt Q9H832) | inactive: 0.018 | inactive: 0.013 | inactive: -0.023 | inactive: -0.022 | inactive: 0.008
TUBA3C (UniProt P0DPH7) | inactive: 0 | active: -0.913 | inactive: 0.017 | inactive: -0.008 | inactive: -0.007
UBE2K (UniProt D6RDM7) | inactive: 0.003 | inactive: 0.019 | inactive: -0.031 | – | inactive: -0.079

Target | log2 fold change [1] | log2 fold change (vorinostat) | log2 fold change (silmitasertib) | log2 fold change [2] | log2 fold change (entospletinib)
UBE3B (UniProt Q7Z3V4) | inactive: 0.117 | active: -0.838 | inactive: 0.061 | inactive: 0.007 | inactive: 0.115
UCK1 isoform 4 (UniProt Q9HA47) | inactive: -0.091 | inactive: -0.144 | inactive: -0.076 | inactive: 0 | inactive: 0.004
TYW1 (UniProt Q9NV66) | inactive: 0.096 | inactive: 0.024 | inactive: -0.045 | inactive: 0.053 | inactive: -0.306
TUBA4A (UniProt P68366) | inactive: 0.066 | active: -0.736 | inactive: 0.077 | inactive: 0.051 | inactive: -0.045
UBE2N (UniProt P61088) | inactive: -0.036 | inactive: -0.051 | inactive: 0.005 | inactive: 0.028 | inactive: -0.056
UBE2T (UniProt Q9NPD8) | inactive: 0.031 | inactive: -0.09 | inactive: 0.033 | inactive: -0.005 | inactive: 0.013
UCHL3 (UniProt P15374) | inactive: -0.07 | inactive: 0.024 | inactive: 0.019 | inactive: -0.032 | inactive: -0.052
UBQLN1 isoform 2 (UniProt Q9UMX0) | inactive: 0.018 | inactive: 0.177 | inactive: 0.141 | inactive: 0.025 | inactive: -0.223
TWNK (UniProt Q96RR1) | inactive: 0.119 | inactive: 0.27 | inactive: -0.106 | inactive: 0.067 | inactive: -0.043
TUBA8 (UniProt Q9NY65) | – | inactive: 0.015 | inactive: 0.074 | – | inactive: -0.012
TUFT1 (UniProt Q9NNX1) | – | inactive: 0.128 | inactive: 0.012 | – | inactive: 0.024
UBXN8 (UniProt O00124) | – | inactive: -0.124 | inactive: -0.001 | inactive: -0.084 | inactive: -0.176
TYK2 (UniProt P29597) | – | inactive: 0.219 | inactive: 0.166 | inactive: -0.027 | inactive: -0.137
TTYH3 isoform 4 (UniProt Q9C0H2) | – | inactive: 0.256 | inactive: -0.101 | – | –
UBN1 (UniProt Q9NPG3) | inactive: 0.048 | – | – | inactive: -0.463 | inactive: -0.034
TUBB8B (UniProt A6NNZ2) | inactive: 0.117 | – | – | – | inactive: 0.026
TYW5 (UniProt A2RUC4) | – | inactive: -0.06 | inactive: 0.113 | inactive: -0.024 | inactive: -0.188
TXNRD1 isoform 7 (UniProt Q16881) | inactive: 0.322 | – | – | – | inactive: -0.078
